# Laboratory results reported in PubChem BioAssay AID1487 (National Center for Advancing Translational Sciences (NCATS), 2009).
# This is one part of the list. These are further read-outs of the screen, such as a control signal, another cell line or another target. No call is given for them. Compounds called inactive in the main read-out are mostly missing here. Words in brackets tell the shape of the fitted curve; partial curves, single points and poor fits give uncertain potencies.
# Test: qHTS Assay for Modulators of Lamin A Splicing
# Conditions: HeLa LMNA splicing GFP/RFP minigene ratio, 48 h
# Procedure, shortened: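 Read-out is the ratio of GFP to DsRed2 object intensity, acquired by 488 nm laser-scanning cytometry on HeLa lamin A-EGFP minigene reporter cells. Compound incubation 48 hrs at 37 °C in Opti-MEM with 2% FBS; DMSO 0.5% final.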
# [1] = measured here: GFP splicing reporter channel
# [2] = measured here: RFP viability control channel
SMILES,AC50 [1],AC50 [2]
c1cc2c(cc1C1CCCCC1)c1c3n2CCN=C3CCC1,"2.82 µM [falling, partial curve, poor fit]","31.6 µM [rising, single point]"
Nc1ccccc1S(N)(=O)=O,"0.0708 µM [falling, full curve, poor fit]",–
COc1ccccc1NS(=O)(=O)c1cc(NC(=O)C2CCCC2)ccc1N1CCOCC1,–,"11.2 µM [rising, single point]"
O=C(N/N=C\c1cc(Cl)ccc1O)c1ccc(S(=O)(=O)N2CCCCC2)cc1,–,"7.94 µM [rising, partial curve]"
O=C(NCc1cccnc1)NC1(C(F)(F)F)Oc2ccc(Cl)cc2O1 (configuration not stated),–,"11.2 µM [rising, partial curve]"
N#CC1=C(SCc2ccccc2)NC(=O)CC1c1cccc(O)c1 (configuration not stated),–,"35.5 µM [rising, single point]"
COc1ccc(-c2cc(C(F)(F)F)n3ncc(C(=O)O)c3n2)cc1OC,–,"5.62 µM [rising, single point]"
Cc1ccc2c(c1C)NC(C(=O)O)C1CC=CC21 (configuration not stated),"0.0251 µM [falling, full curve]",–
COc1ccc(NC(=O)CN2C(=O)c3ccccc3Sc3ccc(C(=O)N4CCOCC4)cc32)c(OC)c1,"0.0708 µM [falling, full curve, poor fit]",–
O=C(Nc1ccc(Cl)c(Cl)c1)Nc1nnc(CSc2ccccc2)s1,–,"5.62 µM [rising, single point]"
O=C(C1CC1)N1CCc2cc(Br)cc(S(=O)(=O)N3CCCCCC3)c21,–,"10 µM [rising, partial curve, poor fit]"
c1cncc(-c2nc3c(ccc4ccccc43)[nH]2)c1,"0.112 µM [rising, full curve, poor fit]",–
O=C(NC1CCCCC1)C1CCCN1S(=O)(=O)c1cccc2nsnc12 (configuration not stated),"14.1 µM [rising, partial curve]","17.8 µM [rising, partial curve]"
O=C(O)C(c1ccccc1)N1CCCC1 (configuration not stated),"28.2 µM [falling, single point]","22.4 µM [falling, single point]"
COc1cccc(CNC(=O)COCc2cc(-c3ccc4c(c3)OCO4)on2)c1,–,"15.8 µM [rising, single point]"
CCC(CC)C(=O)Nc1cccc(C(=O)NCCc2ccccc2)c1,–,"0.0158 µM [falling, full curve, poor fit]"
CC(=O)CC1OC(=O)C(Br)=C1NCc1ccccc1 (configuration not stated),"12.6 µM [rising, partial curve]","35.5 µM [rising, single point]"
COc1ccc(-n2c(CCc3ccccc3)nnc2SCC(=O)c2ccc(Cl)cc2)cc1,"3.55 µM [rising, partial curve]","2.24 µM [rising, single point]"
COC(=O)C/C=C/[C@@H](C)[C@@H](/C=N/OC[C@H]1O[C@H](c2ccccc2)C=C[C@@H]1Oc1ccc(OC)cc1)OC,–,"11.2 µM [rising, single point]"

SMILES,AC50 [1],AC50 [2]
CCn1c(SCC(=O)N2CCN(c3cccc(Cl)c3)CC2)nc2ccccc2c1=O,"35.5 µM [rising, single point]","35.5 µM [rising, single point]"
O=C(CSc1nnc(CNC(=O)c2c(F)cccc2Cl)o1)NCc1ccc2c(c1)OCO2,"31.6 µM [rising, single point]",–
CC(NC(=O)c1ccc(Br)cc1)c1ccccc1 (configuration not stated),"4.47 µM [rising, full curve, poor fit]","4.47 µM [rising, full curve, poor fit]"
COc1ccc(OC)c(C2C3=C(N=c4s/c(=C\c5cccc(O)c5)c(=O)n42)c2ccccc2CC3)c1 (configuration not stated),–,"35.5 µM [rising, single point]"
COc1ccc(S(=O)(=O)N2c3ccccc3OCC2C)cc1 (configuration not stated),–,"35.5 µM [rising, single point]"
CN1c2ccccc2N(C)C1(C)c1ccccc1,–,"17.8 µM [rising, partial curve]"
CN(C)S(=O)(=O)c1ccc2c(c1)N(CC(=O)N1CCN(c3ccccc3F)CC1)CCS2,–,"0.141 µM [falling, full curve, poor fit]"
CC[C@@]12CCCN3CCc4c(n(c5ccccc45)C(=O)C1)[C@H]32,"12.6 µM [falling, single point]","14.1 µM [falling, single point]"
CC1(c2ccccc2)CC(C)(C)N(C(=O)c2cc([N+](=O)[O-])cc([N+](=O)[O-])c2)c2ccccc21 (configuration not stated),"17.8 µM [rising, partial curve]",–
CCOC(=O)c1oc2ccccc2c1NC(=O)CN1CCOCC1,–,"0.00447 µM [falling, full curve, poor fit]"
COc1ccc(/C=N/NC(=O)c2ccc(N(C)S(=O)(=O)c3ccccc3)cc2)cc1,"35.5 µM [falling, single point]",–
O=C(NCCc1ccccc1)C1CCN(S(=O)(=O)N2CCCCCC2)CC1,"6.31 µM [rising, single point]",–
Cc1ccccc1CNC(=O)c1sc2ncnc(N(C)C3CCCCC3)c2c1C,–,"4.47 µM [falling, partial curve, poor fit]"
COc1ccccc1NC(=O)N(Cc1ccco1)Cc1cc2ccc(C)c(C)c2[nH]c1=O,"35.5 µM [rising, single point]","14.1 µM [rising, single point]"
CC(C)CC(=O)NC(NC(=S)Nc1cccc2cccnc12)C(Cl)(Cl)Cl (configuration not stated),"12.6 µM [rising, single point]","28.2 µM [rising, single point]"
Cn1cnnc1SCC(=O)Nc1nc(-c2ccccc2)cs1,"17.8 µM [falling, partial curve, poor fit]","31.6 µM [falling, partial curve, poor fit]"
CN(Cc1cn(C)nc1-c1ccccc1F)Cc1nccn1C,–,"35.5 µM [rising, single point]"
Cc1ccc(Nc2nc(N3CCOCC3)nc(N3CCOCC3)n2)cc1,"15.8 µM [falling, single point]","35.5 µM [falling, single point]"
COc1ccc(N2CCN(CCNC(=O)Nc3ccc(Cl)cc3)CC2)cc1,–,"22.4 µM [rising, single point]"

SMILES,AC50 [1],AC50 [2]
O=C(NC1CCCC1)c1ccc2c(=O)n(Cc3ccccc3)c(SCc3ccccc3)nc2c1,–,"0.02 µM [falling, full curve, poor fit]"
COc1ccc(N2CCN(CCCNC(=O)c3cc(Nc4ccccc4OC)nc4ccccc34)CC2)cc1,"0.794 µM [rising, partial curve, poor fit]",–
O=C1C2C3c4ccccc4C(c4ccccc43)C2C(=O)N1Cc1cccnc1 (configuration not stated),"15.8 µM [rising, partial curve, poor fit]","17.8 µM [rising, single point]"
FC(F)(F)c1cc(-c2ccc(Cl)cc2)nc(NCc2cccnc2)n1,"35.5 µM [rising, single point]","35.5 µM [rising, single point]"
Cn1c(C(=O)N2CCc3ccccc3C2)cc2oc3ccccc3c21,"14.1 µM [rising, partial curve, poor fit]",–
Cc1ccc(NC(=S)N/N=C/c2ccc([N+](=O)[O-])s2)cc1,–,"5.01 µM [falling, partial curve, poor fit]"
CC1CCCCN1S(=O)(=O)c1cc2c3c(c1)CC(=O)N3CCC2 (configuration not stated),"5.01 µM [rising, partial curve, poor fit]","2.82 µM [rising, single point]"
O=C(NCc1ccccc1Cl)C1CCCN(c2nc3ccsc3c(=O)s2)C1 (configuration not stated),–,"0.0355 µM [falling, full curve, poor fit]"
CN(C(=O)CSc1nc2ccccc2n1CC(=O)N(C)c1ccc(F)cc1)c1ccccc1,"0.0447 µM [rising, full curve, poor fit]",–
Cc1ccccc1-n1ncc2c(SCC(=O)N3c4ccccc4CC3C)ncnc21 (configuration not stated),"22.4 µM [falling, partial curve, poor fit]",–
O=[N+]([O-])c1cc(Cl)cc(/C=N\Nc2ccccn2)c1O,–,"3.16 µM [rising, single point]"
Cc1nnc(SCC(=O)Nc2nc3c(s2)CC(C)CC3)s1 (configuration not stated),–,"11.2 µM [rising, single point]"
CCC(/C=C1\Sc2ccc(OC)cc2N1CCO)=C\c1sc2ccc(OC)cc2[n+]1CCO,–,"12.6 µM [rising, partial curve]"
Cc1ccc(CNC(=O)CN2C(=O)C3(SCC(=O)N3c3cc(C)cc(C)c3)c3ccccc32)cc1 (configuration not stated),"39.8 µM [falling, partial curve, poor fit]",–
CCN1C(c2ccc(F)cc2)=CS/C1=C(\C#N)c1nnc2n1-c1ccccc1SC2,–,"0.708 µM [rising, single point]"
COc1cc(/C=C/C(=O)c2ccc(O)cc2)ccc1OCC#N,–,"2.82 µM [rising, full curve]"
O=C(c1cccc(S(=O)(=O)N2CCCCC2)c1)N1CCc2ccccc21,–,"20 µM [rising, single point]"
CC(=O)N=c1n(C)c2ccccc2n1CCOc1ccccc1,"35.5 µM [rising, single point]","31.6 µM [rising, single point]"

# Entries above that contain a nitro group on carbon:
SMILES,AC50 [1],AC50 [2]
CC1(c2ccccc2)CC(C)(C)N(C(=O)c2cc([N+](=O)[O-])cc([N+](=O)[O-])c2)c2ccccc21 (configuration not stated),"17.8 µM [rising, partial curve]",–
Cc1ccc(NC(=S)N/N=C/c2ccc([N+](=O)[O-])s2)cc1,–,"5.01 µM [falling, partial curve, poor fit]"
O=[N+]([O-])c1cc(Cl)cc(/C=N\Nc2ccccn2)c1O,–,"3.16 µM [rising, single point]"
